The record followed here is article PMC3514319.

Changes are numbered by the printed parent chain. No constants are given. Whether binding was seen depends on the method and setting. Binding seen in cells or lysates may run through a third protein. Some results given as binding are weak or reduced against the parent protein; the word gives no strength. Where a sequence is shown, tags or fusion partners need not be part of it.

Experiment [1] addresses T1, HA-tagged Rab11-DN (S25N) (Drosophila) (UniProt O18335).
T1 sequence: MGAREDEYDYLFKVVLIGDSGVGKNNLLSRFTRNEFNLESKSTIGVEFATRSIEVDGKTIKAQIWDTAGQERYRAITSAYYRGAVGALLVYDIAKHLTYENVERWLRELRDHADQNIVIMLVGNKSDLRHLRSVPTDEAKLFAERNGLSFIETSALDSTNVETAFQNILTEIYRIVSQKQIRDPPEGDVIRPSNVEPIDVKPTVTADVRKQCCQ
The experiment in a line: co-IP; as a1, but EDTA removed from the lysis buffer to compare Rab11-DN and Rab11-CA; anti-HA affinity gel 3 h at 4°C; Western blot with anti-HA and anti-FLAG.

For experiment [2], the target named is T2, HA-tagged Rab11-CA (Q70L) (Drosophila) (UniProt O18335).
T2 sequence: T1 sequence with N25S, Q70L
The description is as above.

Experiment [3] addresses T3, HA-tagged Rab11 (Drosophila) (UniProt O18335).
T3 sequence: T1 sequence with N25S
As to the kind of experiment: co-IP; S2 cells co-transfected; lysis buffer 50 mM Tris-HCl pH 8.0, 100 mM NaCl, 1 mM EDTA, 1% Nonidet P-40; lysate incubated with anti-HA affinity gel 3 h at 4°C; Western blot with anti-HA and anti-FLAG. Background: A western blot detects proteins with antibodies after separation by electrophoresis.

Take “FLAG-tagged Crag (Calmodulin-binding protein related to a Rab3 GDP/GTP exchange protein) (from UniProt Q9W3D3 1-1671)”: the binding entry was “binds” in experiment [1], “binds weakly” in experiment [2] and “binds” in experiment [3].
